PubChem BioAssay AID1259279 – Sanger Institute, 2017
The deposit covers 794 reagents; below is a part drawn at random. 11 of all reagents (1.4%) count as active. 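Calls reflect knock-down alone in the vehicle arm, not drug synergy.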 Entries without a mark were called inactive. Viability is capped at 1. Further read-outs or replicates are left out here. The record does not give: the amount of reagent, the time to read-out.

- Purpose: 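Kinase-wide knock-down seeking synergy with BYL719, cetuximab or trametinib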 (primary screen)
- Cell system: LS180 human colorectal cancer cells
- Knock-down reagent: siRNA pool against human genes
- Conditions: anchor drug BYL719 at 1 µM, cetuximab at 5 µg/ml or trametinib at 10 nM, or DMSO vehicle only
- Measured: 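Cell viability versus a non-targeting pool, as a fraction and as a robust z-score from replicate means, plus a synergy score for each of three drugs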
- Scale: viability z-score, no drug: higher = more viable cells after knock-down; viability, no drug: higher = more viable cells
- Units: viability, no drug in fraction
- Active means: 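a knock-down is called active, meaning essential, if its viability z-score in vehicle alone falls below -3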
- Calls: active = essential (knock-down alone cuts viability); inactive = no change without drug

What did the screen give for KSR2 (GeneID 283455)?
viability z-score, no drug: 0.533; viability, no drug: 0.964

How did the screen score PNKP (GeneID 11284)?
viability z-score, no drug: -0.518; viability, no drug: 0.85

What did the screen give for PDGFRL (GeneID 5157)?
viability z-score, no drug: -0.816; viability, no drug: 0.817

For MAP3K12 (GeneID 7786), what does the deposit list?
viability z-score, no drug: 0.0904; viability, no drug: 0.916

With BTK (GeneID 695), how do the results read?
viability z-score, no drug: 0.86; viability, no drug: 1

With PRKAR1A (GeneID 5573), what does the deposit list?
viability z-score, no drug: 0.86; viability, no drug: 1

What did the screen give for DDR2 (GeneID 4921)?
viability z-score, no drug: 0.744; viability, no drug: 0.987

For ITPKA (GeneID 3706), what does the deposit list?
viability z-score, no drug: 0.86; viability, no drug: 1

With PDGFRA (GeneID 5156), how do the results read?
viability z-score, no drug: -0.161; viability, no drug: 0.889

Which result is listed for BUB1B (GeneID 701)?
viability z-score, no drug: -0.182; viability, no drug: 0.886

What is on record for RPS6KC1 (GeneID 26750)?
viability z-score, no drug: 0.86; viability, no drug: 1

For PRP4K (GeneID 8899), what does the deposit list?
viability z-score, no drug: 0.516; viability, no drug: 0.962
